# According to patent publication US20190375791A1, “NEW D-CONFIGURED CATESLYTIN PEPTIDE” (priority 2016, published 2019):
# Part of at least one peptide drawing is inferred or uncertain, most often the ends. Where a SMILES comes first, the peptide text is derived from it. [ ]: non-standard residue; d: D form.
# System: E. coli (ATCC 25922)
# Assay: Resistance acquisition assay
# Type: cell-based, Escherichia coli
# Conditions: E. coli wild type cultured at sub-MIC (½ MIC) concentrations, day 28
# Experimental: FIG. 1: Resistance acquisition assay of E. coli in the presence of D-CTL compared to ampicillin and cefotaxim. Bacteria were cultured in the presence of ½ MIC of the antibacterial agent for […]. The fold change in MIC was evaluated at the indicated days. The graph is representative of two experiments done independently.
# E. coli (ATCC® 25922™ ) strain was sequentially passaged every day in the presence of the different antibacterial compounds: D-CTL, ampicillin or cefotaxime at ½ MIC during 28 days. The changes in the MICs were determined as previously described by broth microdilution at the indicated times.
smiles,measurement,value
CSCC[C@@H](NC(=O)[C@@H](CO)NC(=O)[C@H](N)CCCNC(=N)N)C(=O)N[C@H](CCCNC(=N)N)C(=O)N[C@H](CC(C)C)C(=O)N[C@H](CO)C(=O)N[C@H](Cc1ccccc1)C(=O)N[C@H](CCCNC(=N)N)C(=O)N[C@H](C)C(=O)N[C@H](CCCNC(=N)N)C(=O)NCC(=O)N[C@H](Cc1ccc(O)cc1)C(=O)NCC(=O)N[C@H](Cc1ccccc1)C(=O)N[C@H](CCCNC(=N)N)C(=O)O [D-CTL] (H-[dR][dS][dM][dR][dL][dS][dF][dR][dA][dR]G[dY]G[dF][dR]-OH; N-terminus and C-terminus assumed),change in MIC over the culture,remained stable
